From patent publication US20240190990A1 (BEIGENE SWITZERLAND, published 2024)
Results are given in words; binding and its absence hold for the method and conditions named. Some entries that bind do so weakly or less than the wild type.

The chains behind the UniProt entries cited, without tags or fusion partners. Where a name states a change or a piece, a line headed by the entry shows the natural chain unless it says otherwise.
UniProt P06731: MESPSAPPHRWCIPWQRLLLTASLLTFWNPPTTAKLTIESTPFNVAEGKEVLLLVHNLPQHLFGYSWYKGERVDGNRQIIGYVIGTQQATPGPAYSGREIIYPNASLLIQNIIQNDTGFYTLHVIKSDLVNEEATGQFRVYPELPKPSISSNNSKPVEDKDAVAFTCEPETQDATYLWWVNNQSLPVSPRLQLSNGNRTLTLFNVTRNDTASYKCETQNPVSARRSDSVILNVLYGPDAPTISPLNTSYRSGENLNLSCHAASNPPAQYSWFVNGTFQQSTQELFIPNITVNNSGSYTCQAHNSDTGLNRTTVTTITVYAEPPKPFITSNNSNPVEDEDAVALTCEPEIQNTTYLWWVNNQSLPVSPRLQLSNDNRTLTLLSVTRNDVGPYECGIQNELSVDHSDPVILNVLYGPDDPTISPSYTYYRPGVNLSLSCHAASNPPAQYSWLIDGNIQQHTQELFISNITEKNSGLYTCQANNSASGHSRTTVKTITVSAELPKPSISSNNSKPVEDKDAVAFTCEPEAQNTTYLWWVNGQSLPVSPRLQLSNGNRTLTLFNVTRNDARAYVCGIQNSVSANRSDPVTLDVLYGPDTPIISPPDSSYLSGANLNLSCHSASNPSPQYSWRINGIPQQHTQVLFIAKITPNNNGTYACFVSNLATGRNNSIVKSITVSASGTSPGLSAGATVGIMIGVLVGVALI

Experiments:
[1] = target: human CEA (form used in the assay not stated) (human) (UniProt P06731); assay: assay not named
[2] = target: soluble human CEA (amino acids 1-687 of huCEA, C-terminal 6xHis) (human) (UniProt P06731); assay: SPR and FACS of IgG variants

| Binder | binding [1] | binding [2] |
| --- | --- | --- |
| BGA131 (antibody, human IgG1, kappa, V domains shown) VH: QVQLVQSGAEVKKPGASVKVSCKASGYIFTSYWLHWVRQAPGQGLEWIGYINPNTGYTNYSQKFQGRVTMTRDTSTSTVYMELSSLRSEDTAVYYCAREYGNYNYPLDYWGQGTLVTVSS VL: DIQMTQSPSSLSASVGDRVTITCRASENIYGYLAWYQQKPGKVPKLLIYNAKNLVEGVPSRFSGSGSGTDFTLTISSLQPEDVATYYCQHHYGTPYTFGQGTKVEIKR | binds | – |
| BGA131A (antibody, human IgG1, kappa, V domains shown) VH: QVQLVQSGAEVKKPGASVKVSCKASGYIFTSYWLHWVRQAPGQGLEWIGYITPNTGYTNYSQKFQGRVTMTRDTSTSTVYMELSSLRSEDTAVYYCAREYGNYNYPLDYWGQGTLVTVSS VL: DIQMTQSPSSLSASVGDRVTITCRASENIYGYLAWYQQKPGKVPKLLIYNAKNLVEGVPSRFSGSGSGTDFTLTISSLQPEDVATYYCQHHYGTPYTFGQGTKVEIKR | binds | – |
| BGA113 variant L92E (antibody, V domains shown) VH: QVQLVQSGAEVKKPGASVKVSCKASGYIFTSYYLHWVRQAPGQGLEWIGYINPQTGYTSYAQKFQGRVTMTRDTSTSTVYMELSSLRSEDTAVYYCAREYGNYNYPLDYWGQGTLVTVSS VL: DIQMTQSPSSLSASVGDRVTITCRASENQYGYLAWYQQKPGKVPKLLIYNYKNLVEGVPSRFSGSGSGTDFTLTISSLQPEDVATYYCQHHEGTPYTFGQGTKVEIK | – | binds |
| BGA131C (antibody, human IgG1, kappa, V domains shown) VH: QVQLVQSGAEVKKPGASVKVSCKASGYIFTSYWLHWVRQAPGQGLEWIGYINPNTGYTSYSQKFQGRVTMTRDTSTSTVYMELSSLRSEDTAVYYCAREYGNYNYPLDYWGQGTLVTVSS VL: DIQMTQSPSSLSASVGDRVTITCRASENIYGYLAWYQQKPGKVPKLLIYNAKNLVEGVPSRFSGSGSGTDFTLTISSLQPEDVATYYCQHHYGTPYTFGQGTKVEIKR | binds | – |
| BGA131D (antibody, human IgG1, kappa, V domains shown) VH: QVQLVQSGAEVKKPGASVKVSCKASGYIFTSYWLHWVRQAPGQGLEWIGYINPNTGYTNYSQKFQGRVTMTRDTSTSTVYMELSSLRSEDTAVYYCAREYGGYNYPLDYWGQGTLVTVSS VL: DIQMTQSPSSLSASVGDRVTITCRASENIYGYLAWYQQKPGKVPKLLIYNAKNLVEGVPSRFSGSGSGTDFTLTISSLQPEDVATYYCQHHYGTPYTFGQGTKVEIKR | binds | – |
| BGA131B (antibody, human IgG1, kappa, V domains shown) VH: QVQLVQSGAEVKKPGASVKVSCKASGYIFTSYWLHWVRQAPGQGLEWIGYINPQTGYTNYSQKFQGRVTMTRDTSTSTVYMELSSLRSEDTAVYYCAREYGNYNYPLDYWGQGTLVTVSS VL: DIQMTQSPSSLSASVGDRVTITCRASENIYGYLAWYQQKPGKVPKLLIYNAKNLVEGVPSRFSGSGSGTDFTLTISSLQPEDVATYYCQHHYGTPYTFGQGTKVEIKR | binds | – |
| BGA131E (antibody, human IgG1, kappa, V domains shown) VH: QVQLVQSGAEVKKPGASVKVSCKASGYIFTSYWLHWVRQAPGQGLEWIGYINPNTGYTNYSQKFQGRVTMTRDTSTSTVYMELSSLRSEDTAVYYCAREYGNYQYPLDYWGQGTLVTVSS VL: DIQMTQSPSSLSASVGDRVTITCRASENIYGYLAWYQQKPGKVPKLLIYNAKNLVEGVPSRFSGSGSGTDFTLTISSLQPEDVATYYCQHHYGTPYTFGQGTKVEIKR | binds | – |
| BGA132 (antibody, human IgG1, kappa, V domains shown) VH: QVQLVQSGAEVKKPGASVKVSCKASGYIFTSYWLHWVRQAPGQGLEWIGYINPNTGYTNYSQKFQGRATMTADTSTSTVYMELSSLRSEDTAVYYCAREYGNYNYPLDYWGQGTLVTVSS VL: DIQMTQSPSSLSASVGDRVTITCRASENIYGYLAWYQQKPGKVPKLLIYNAKNLVEGVPSRFSGSGSGTDFTLTISSLQPEDVATYYCQHHYGTPYTFGQGTKVEIKR | binds | – |

Results, then the binder that gave them:

| binding [1] | binding [2] | Binder |
| --- | --- | --- |
| binds | – | BGA135 (antibody, human IgG1, kappa, V domains shown) VH: QVQLVQSGAEVKKPGASVKVSCKASGYIFTSYWLHWVRQAPGQGLEWIGYINPNTGYTNYSQKFQGRVTMTRDTSTSTVYMELSSLRSEDTAVYYCAREYGNYNYPLDYWGQGTLVTVSS VL: DIQMTQSPSSLSASVGDRVTITCRASENIYGYLAWYQQKPGKSPKLLIYNAKNLVEGVPSRFSGSGSGTDFTLTISSLQPEDVATYYCQHHYGTPYTFGQGTKVEIKR |
| binds | – | BGA137 (antibody, human IgG1, kappa, V domains shown) VH: QVQLVQSGAEVKKPGASVKVSCKASGYIFTSYWLHWVRQAPGQGLEWIGYINPNTGYTNYSQKFQGRVTMTRDTSTSTAYMELSSLRSEDTAVYYCAREYGNYNYPLDYWGQGTLVTVSS VL: DIQMTQSPSSLSASVGDRVTITCRASENIYGYLAWYQQKPGKSPKLLIYNAKNLVEGVPSRFSGSGSGTDFTLTISSLQPEDVATYYCQHHYGTPYTFGQGTKVEIKR |
| binds | – | BGA138 (antibody, human IgG1, kappa, V domains shown) VH: QVQLVQSGAEVKKPGASVKVSCKASGYIFTSYWLHWVRQAPGQGLEWIGYINPNTGYTNYSQKFQGRATMTADTSTSTAYMELSSLRSEDTAVYYCAREYGNYNYPLDYWGQGTLVTVSS VL: DIQMTQSPSSLSASVGDRVTITCRASENIYGYLAWYQQKPGKSPKLLIYNAKNLVEGVPSRFSGSGSGTDFTLTISSLQPEDVATYYCQHHYGTPYTFGQGTKVEIKR |
| binds | – | BGA136 (antibody, human IgG1, kappa, V domains shown) VH: QVQLVQSGAEVKKPGASVKVSCKASGYIFTSYWLHWVRQAPGQGLEWIGYINPNTGYTNYSQKFQGRATMTADTSTSTVYMELSSLRSEDTAVYYCAREYGNYNYPLDYWGQGTLVTVSS VL: DIQMTQSPSSLSASVGDRVTITCRASENIYGYLAWYQQKPGKSPKLLIYNAKNLVEGVPSRFSGSGSGTDFTLTISSLQPEDVATYYCQHHYGTPYTFGQGTKVEIKR |
| binds | – | BGA133 (antibody, human IgG1, kappa, V domains shown) VH: QVQLVQSGAEVKKPGASVKVSCKASGYIFTSYWLHWVRQAPGQGLEWIGYINPNTGYTNYSQKFQGRVTMTRDTSTSTAYMELSSLRSEDTAVYYCAREYGNYNYPLDYWGQGTLVTVSS VL: DIQMTQSPSSLSASVGDRVTITCRASENIYGYLAWYQQKPGKVPKLLIYNAKNLVEGVPSRFSGSGSGTDFTLTISSLQPEDVATYYCQHHYGTPYTFGQGTKVEIKR |
| binds | – | BGA134 (antibody, human IgG1, kappa, V domains shown) VH: QVQLVQSGAEVKKPGASVKVSCKASGYIFTSYWLHWVRQAPGQGLEWIGYINPNTGYTNYSQKFQGRATMTADTSTSTAYMELSSLRSEDTAVYYCAREYGNYNYPLDYWGQGTLVTVSS VL: DIQMTQSPSSLSASVGDRVTITCRASENIYGYLAWYQQKPGKVPKLLIYNAKNLVEGVPSRFSGSGSGTDFTLTISSLQPEDVATYYCQHHYGTPYTFGQGTKVEIKR |
